Experimental findings from US20230052369A1 are described below.

Amino acid sequences for entries named in this document (tags omitted). A change or cut given only in a name is not applied to a line headed by its entry.
UniProt P15328: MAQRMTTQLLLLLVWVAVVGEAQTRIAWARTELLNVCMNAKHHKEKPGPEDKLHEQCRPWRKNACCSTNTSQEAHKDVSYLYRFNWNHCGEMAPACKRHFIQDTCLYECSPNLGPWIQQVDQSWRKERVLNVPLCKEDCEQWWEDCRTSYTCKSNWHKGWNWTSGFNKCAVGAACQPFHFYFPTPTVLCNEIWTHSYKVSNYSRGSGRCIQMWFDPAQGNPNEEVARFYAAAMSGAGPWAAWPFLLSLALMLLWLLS

This test has as its target full-length human FRα, on 293E cells (human) (UniProt P15328). Briefly: flow cytometry, 293E cells expressing FRα. In general terms: A flow cytometer gives signals particle by particle.

No constants are given. Whether binding was seen depends on the method and setting. Some binding calls cover weakened binding; strength is not graded here.

B1: v17721 (scFv)
scFv: QVQLVQSGAEVVKPGASVKISCKASGYTFTGYFMNWVKQSPGQSLEWIGRIHPYDGDTFYNQKFQGKATLTVDKSSNTAHMELLSLTSEDFAVYYCTRYDGSRAMDYWGQGTTVTVSSGGGGSGGGGSGGGGSDIVLTQSPLSLAVSLGQPAIISCKASQSVSFAGTSLMHWYHQKPGQQPRLLIYRASNLEAGVPDRFSGSGSKTDFTLTISPVEAEDAATYYCQQSREYPYTFGGGTKLEIK
Take B1: the binding result is recorded as “binds”.
